# Source: the supplement of paper PMC11732987, “Enantioselective OTUD7B fragment discovery through chemoproteomics screening and high-throughput optimisation” (Communications Chemistry, 2025)
# Sequences of proteins named here, by UniProt entry; tags and fusion partners are left off. A change or cut given only in a name is not applied to a line headed by its entry. Residues count along the entry.
# UniProt Q12888, 711-730: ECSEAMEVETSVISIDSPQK
# UniProt Q86SZ2: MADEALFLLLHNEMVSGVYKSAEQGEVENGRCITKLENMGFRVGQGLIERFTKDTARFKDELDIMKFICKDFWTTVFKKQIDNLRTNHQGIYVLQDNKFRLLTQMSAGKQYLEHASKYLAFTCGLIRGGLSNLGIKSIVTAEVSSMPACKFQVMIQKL
# UniProt Q9Y490, 1375-1401: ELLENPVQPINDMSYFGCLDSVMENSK
# UniProt Q6Q0C0: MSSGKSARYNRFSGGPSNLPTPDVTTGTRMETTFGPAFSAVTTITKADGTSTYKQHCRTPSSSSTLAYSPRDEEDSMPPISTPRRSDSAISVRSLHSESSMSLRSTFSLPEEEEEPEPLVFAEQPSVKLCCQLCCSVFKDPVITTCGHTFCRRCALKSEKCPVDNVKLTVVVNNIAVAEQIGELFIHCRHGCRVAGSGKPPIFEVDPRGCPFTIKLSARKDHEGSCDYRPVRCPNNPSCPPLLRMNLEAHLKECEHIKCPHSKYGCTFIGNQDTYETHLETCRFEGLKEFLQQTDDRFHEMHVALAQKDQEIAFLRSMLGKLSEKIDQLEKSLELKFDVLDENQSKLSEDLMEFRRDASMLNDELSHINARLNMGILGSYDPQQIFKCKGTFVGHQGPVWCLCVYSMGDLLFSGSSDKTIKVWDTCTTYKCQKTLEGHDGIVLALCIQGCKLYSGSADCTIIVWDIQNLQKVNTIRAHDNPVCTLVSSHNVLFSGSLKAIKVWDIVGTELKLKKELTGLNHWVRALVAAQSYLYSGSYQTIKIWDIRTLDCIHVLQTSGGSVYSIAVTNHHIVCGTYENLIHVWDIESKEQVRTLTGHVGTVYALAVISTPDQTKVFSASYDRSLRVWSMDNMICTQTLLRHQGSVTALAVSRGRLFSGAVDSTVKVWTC
# UniProt O14545: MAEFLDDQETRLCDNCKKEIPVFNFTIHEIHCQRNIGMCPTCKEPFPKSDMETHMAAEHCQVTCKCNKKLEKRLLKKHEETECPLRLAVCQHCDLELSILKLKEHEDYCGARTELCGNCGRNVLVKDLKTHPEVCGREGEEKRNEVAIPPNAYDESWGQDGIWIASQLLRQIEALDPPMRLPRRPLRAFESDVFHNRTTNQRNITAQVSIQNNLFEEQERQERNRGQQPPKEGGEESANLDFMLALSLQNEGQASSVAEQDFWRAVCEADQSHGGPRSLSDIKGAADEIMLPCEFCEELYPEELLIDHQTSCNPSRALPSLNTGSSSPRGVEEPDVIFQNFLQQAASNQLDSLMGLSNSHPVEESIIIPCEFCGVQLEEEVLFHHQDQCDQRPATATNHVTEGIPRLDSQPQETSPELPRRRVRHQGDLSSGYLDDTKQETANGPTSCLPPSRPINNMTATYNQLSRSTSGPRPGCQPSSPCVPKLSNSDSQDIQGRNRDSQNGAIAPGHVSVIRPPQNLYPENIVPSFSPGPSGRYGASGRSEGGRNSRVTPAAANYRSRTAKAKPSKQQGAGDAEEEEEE
# UniProt P82094: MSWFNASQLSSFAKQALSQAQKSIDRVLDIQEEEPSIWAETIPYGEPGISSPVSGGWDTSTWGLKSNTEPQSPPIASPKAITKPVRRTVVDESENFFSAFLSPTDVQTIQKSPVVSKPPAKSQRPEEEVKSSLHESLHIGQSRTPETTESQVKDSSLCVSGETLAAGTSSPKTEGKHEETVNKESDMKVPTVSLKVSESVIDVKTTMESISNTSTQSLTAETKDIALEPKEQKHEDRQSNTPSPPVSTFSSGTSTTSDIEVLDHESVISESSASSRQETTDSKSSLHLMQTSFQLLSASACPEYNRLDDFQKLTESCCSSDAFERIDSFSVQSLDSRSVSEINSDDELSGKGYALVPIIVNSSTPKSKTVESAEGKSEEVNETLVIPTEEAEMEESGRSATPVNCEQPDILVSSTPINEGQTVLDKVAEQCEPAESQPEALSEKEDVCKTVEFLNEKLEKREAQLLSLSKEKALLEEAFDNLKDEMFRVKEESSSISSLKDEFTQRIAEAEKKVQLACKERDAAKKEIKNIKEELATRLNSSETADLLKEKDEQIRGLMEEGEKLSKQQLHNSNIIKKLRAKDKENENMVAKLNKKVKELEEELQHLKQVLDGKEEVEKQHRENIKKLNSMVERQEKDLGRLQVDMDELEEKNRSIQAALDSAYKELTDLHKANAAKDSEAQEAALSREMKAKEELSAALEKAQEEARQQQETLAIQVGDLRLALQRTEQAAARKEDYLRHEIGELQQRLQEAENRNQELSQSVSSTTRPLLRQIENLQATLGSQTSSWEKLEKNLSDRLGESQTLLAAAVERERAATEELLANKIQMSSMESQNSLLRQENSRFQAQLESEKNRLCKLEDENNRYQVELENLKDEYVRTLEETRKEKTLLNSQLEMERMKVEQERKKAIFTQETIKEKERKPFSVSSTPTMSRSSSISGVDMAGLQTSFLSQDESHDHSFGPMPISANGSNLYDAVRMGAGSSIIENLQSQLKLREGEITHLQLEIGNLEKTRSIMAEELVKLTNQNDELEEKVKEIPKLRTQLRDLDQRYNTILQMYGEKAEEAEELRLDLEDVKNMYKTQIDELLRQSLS
# UniProt Q9ULS5: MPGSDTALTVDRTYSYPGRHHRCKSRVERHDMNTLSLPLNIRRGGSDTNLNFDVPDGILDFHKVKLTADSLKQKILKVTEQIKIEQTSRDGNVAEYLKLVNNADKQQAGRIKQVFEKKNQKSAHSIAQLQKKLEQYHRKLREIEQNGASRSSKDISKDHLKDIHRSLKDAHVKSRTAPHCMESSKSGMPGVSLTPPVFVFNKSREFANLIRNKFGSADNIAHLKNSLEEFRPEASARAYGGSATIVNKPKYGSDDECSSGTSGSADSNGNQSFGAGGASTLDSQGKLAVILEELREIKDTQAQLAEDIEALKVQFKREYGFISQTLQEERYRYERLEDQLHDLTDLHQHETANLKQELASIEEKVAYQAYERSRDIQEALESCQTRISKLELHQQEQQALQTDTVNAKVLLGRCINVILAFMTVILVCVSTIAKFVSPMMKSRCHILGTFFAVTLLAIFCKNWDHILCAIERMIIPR
# UniProt Q5SNT2: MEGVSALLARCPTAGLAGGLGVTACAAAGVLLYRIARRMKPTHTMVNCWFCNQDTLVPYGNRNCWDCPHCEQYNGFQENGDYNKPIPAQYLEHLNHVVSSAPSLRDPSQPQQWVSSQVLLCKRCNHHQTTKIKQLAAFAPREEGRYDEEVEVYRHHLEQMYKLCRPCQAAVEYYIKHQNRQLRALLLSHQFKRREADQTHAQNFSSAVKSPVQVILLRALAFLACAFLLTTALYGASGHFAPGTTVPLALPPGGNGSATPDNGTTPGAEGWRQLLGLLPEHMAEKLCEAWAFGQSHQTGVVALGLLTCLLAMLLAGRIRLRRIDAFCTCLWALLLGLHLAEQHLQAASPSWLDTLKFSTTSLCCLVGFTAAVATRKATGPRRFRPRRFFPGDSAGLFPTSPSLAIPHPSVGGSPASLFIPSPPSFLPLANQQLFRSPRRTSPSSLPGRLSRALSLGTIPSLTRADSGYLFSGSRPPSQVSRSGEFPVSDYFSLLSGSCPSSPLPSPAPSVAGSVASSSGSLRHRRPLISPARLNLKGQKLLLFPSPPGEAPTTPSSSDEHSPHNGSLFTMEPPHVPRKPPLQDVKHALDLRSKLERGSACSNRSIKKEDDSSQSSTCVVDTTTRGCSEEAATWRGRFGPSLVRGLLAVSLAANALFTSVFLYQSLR
# UniProt Q8TBR7: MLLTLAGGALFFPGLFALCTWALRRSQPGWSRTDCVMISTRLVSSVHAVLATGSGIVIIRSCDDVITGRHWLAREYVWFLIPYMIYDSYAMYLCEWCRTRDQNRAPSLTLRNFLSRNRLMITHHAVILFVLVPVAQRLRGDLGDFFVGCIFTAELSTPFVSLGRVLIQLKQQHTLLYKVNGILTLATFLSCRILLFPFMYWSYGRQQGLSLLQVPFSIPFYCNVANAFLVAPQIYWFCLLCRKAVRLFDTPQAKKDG
# UniProt Q9C037: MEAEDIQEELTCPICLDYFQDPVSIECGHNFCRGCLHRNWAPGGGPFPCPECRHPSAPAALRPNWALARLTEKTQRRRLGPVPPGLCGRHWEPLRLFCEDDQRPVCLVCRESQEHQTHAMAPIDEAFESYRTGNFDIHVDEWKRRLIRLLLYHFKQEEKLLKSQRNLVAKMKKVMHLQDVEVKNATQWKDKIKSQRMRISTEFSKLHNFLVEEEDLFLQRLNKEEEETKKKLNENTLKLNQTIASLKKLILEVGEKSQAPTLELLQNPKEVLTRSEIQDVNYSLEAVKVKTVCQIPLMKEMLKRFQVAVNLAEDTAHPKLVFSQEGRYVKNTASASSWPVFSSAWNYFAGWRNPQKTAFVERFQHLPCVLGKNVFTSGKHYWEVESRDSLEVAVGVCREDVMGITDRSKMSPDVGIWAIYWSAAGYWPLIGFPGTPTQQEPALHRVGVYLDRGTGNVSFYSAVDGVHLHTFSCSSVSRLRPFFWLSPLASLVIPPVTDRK
# UniProt Q8NFZ5: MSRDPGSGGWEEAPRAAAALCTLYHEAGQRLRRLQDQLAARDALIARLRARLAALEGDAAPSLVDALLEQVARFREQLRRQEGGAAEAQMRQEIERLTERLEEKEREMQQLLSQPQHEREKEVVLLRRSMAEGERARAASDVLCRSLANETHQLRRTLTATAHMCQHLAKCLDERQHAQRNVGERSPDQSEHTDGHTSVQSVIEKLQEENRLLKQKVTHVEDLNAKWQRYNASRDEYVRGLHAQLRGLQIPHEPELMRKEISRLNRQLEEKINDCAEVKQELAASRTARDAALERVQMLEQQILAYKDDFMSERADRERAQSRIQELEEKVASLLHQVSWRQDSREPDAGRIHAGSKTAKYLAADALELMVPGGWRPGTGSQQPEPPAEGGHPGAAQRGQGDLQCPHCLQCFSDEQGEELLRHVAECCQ
# UniProt Q9H1E5, 310-338: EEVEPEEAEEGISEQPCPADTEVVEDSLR
# UniProt Q8WV44: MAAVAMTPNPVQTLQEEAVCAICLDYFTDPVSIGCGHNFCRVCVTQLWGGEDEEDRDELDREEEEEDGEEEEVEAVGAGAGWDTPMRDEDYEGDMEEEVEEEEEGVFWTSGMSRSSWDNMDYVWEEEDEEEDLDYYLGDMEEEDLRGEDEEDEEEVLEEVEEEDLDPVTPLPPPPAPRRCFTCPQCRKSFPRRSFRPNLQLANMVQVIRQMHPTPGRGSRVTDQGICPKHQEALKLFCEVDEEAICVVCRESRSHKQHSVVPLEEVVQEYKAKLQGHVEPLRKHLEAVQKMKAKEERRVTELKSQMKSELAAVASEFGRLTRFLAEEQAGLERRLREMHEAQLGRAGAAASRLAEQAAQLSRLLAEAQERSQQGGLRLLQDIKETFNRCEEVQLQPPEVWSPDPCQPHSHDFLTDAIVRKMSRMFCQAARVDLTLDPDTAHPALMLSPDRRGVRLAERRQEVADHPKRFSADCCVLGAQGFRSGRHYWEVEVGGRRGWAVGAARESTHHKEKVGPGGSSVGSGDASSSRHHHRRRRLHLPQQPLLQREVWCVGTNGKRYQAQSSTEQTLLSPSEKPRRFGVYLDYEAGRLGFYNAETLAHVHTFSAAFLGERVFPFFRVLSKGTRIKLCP
# UniProt Q7Z392, 805-839: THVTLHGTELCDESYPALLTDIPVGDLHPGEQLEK
# UniProt P19438, whole entry, looked up: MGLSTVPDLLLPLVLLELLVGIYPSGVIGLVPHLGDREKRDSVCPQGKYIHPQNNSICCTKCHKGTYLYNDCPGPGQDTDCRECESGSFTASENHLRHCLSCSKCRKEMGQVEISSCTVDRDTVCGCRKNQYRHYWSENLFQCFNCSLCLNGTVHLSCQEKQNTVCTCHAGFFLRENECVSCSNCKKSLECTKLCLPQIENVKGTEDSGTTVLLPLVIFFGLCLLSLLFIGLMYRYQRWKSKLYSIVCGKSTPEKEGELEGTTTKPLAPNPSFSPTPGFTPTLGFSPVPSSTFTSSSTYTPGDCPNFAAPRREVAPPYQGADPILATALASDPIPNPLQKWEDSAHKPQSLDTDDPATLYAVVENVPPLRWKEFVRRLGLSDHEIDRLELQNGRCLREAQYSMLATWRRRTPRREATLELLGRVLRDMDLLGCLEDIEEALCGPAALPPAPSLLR
# UniProt Q16890: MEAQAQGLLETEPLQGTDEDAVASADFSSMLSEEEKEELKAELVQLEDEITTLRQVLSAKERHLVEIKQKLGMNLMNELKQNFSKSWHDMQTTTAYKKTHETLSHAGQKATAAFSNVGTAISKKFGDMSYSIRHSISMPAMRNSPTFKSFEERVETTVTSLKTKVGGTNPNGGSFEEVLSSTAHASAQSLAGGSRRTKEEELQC
# UniProt Q3ZCQ8: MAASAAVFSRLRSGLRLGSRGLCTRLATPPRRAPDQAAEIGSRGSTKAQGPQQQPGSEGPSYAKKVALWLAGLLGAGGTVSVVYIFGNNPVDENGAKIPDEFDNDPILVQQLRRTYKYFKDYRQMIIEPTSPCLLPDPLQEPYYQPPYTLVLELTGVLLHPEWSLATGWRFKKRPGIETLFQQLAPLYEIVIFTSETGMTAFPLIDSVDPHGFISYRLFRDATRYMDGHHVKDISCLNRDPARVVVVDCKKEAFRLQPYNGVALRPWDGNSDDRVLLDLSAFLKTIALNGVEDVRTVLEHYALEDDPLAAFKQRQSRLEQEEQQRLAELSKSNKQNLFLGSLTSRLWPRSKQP
# The list shows a part of the results. The data scatter; read single values as rough.
# How the values were obtained:
# [1] = compound: ClCC(=O)N[C@@H]1CCCc2ccccc12; assay: log2 mean competition ratio of IA-DTB cysteine labelling (DMSO/compound) (log2 ratio); higher = stronger cysteine engagement by compound; details: treatment time: 4 h, cell line lysate: HEK293T
# Procedure: (§1)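 IA-DTB competitive cysteine chemoproteomics in HEK293T RIPA lysate. Lysates were treated with compound 29 or 30 at 50 or 200 µM for 4 h, then IA-DTB (500 µM, 1 h), trypsin-digested, NeutrAvidin-enriched and analysed by diaPASEF. Competition ratio = intensity DMSO / intensity compound (n=4 treated, n=64 DMSO); binding: mean log2 CR ≥ 1 and p ≤ 0.05 plus QC filters. Target is the cysteine site.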
# [2] = compound: ClCC(=O)N[C@H]1CCCc2ccccc12; assay: as above; details: treatment time: 4 h, cell line lysate: HEK293T
# Procedure: as §1
Target,log2 mean competition ratio ([1]; 50 µM),log2 mean competition ratio ([1]; 200 µM),log2 mean competition ratio ([2]; 50 µM),log2 mean competition ratio ([2]; 200 µM)
TRAPPC13 C332 (UniProt A5PLN9),-0.23,-0.0866,-0.224,-0.217
TP53BP1 C319 (UniProt Q12888),0.0559,-0.0117,0.192,0.228
TRAPPC6B C149 (UniProt Q86SZ2),0.0243,0.225,-0.0144,0.289
TLN1 C116 (UniProt Q9Y490),0.0246,-0.623,-0.07,-0.419
TRAF7 C426 (UniProt Q6Q0C0),-0.0745,-0.134,0.00716,-0.26
TLN2 C1365 (UniProt Q9Y4G6),-0.279,-0.0956,-0.24,-0.0196
TRAFD1 C267 (UniProt O14545),-0.0369,0.118,0.0426,0.0147
TOX4 C577 (UniProt O94842),-0.162,-0.0131,0.0618,-0.0276
TOPBP1 C1200 (UniProt Q92547),-0.3,0.152,0.0805,0.249
TMF1 C158 (UniProt P82094),-0.538,-0.264,0.223,-0.192
TP53 C182,-0.0567,0.134,-0.776,-0.137
TNRC6B C557 (UniProt Q9UPQ9),0.37,0.106,0.138,0.332
TRAPPC4 C195 (UniProt Q9Y296),0.305,0.0775,0.14,0.101
TOE1 C80 (UniProt Q96GM8),0.00958,0.365,-0.342,0.271
TNPO3 C125 (UniProt Q9Y5L0),0.121,-0.214,-0.013,-0.149
TMEM45A C255,0.0368,0.0333,-0.709,0.193
TNRC18 C607 (UniProt O15417),-0.329,0.0461,0.401,-0.0361
TMCC3 C180 (UniProt Q9ULS5),0.145,0.514,0.198,-0.143
TNPO1 C620 (UniProt Q92973),-0.0337,-0.136,0.327,-0.0762
TRIM21 C463 (UniProt P19474),-0.157,-1.15,-0.0925,-0.461
TRAPPC13 C32 (UniProt A5PLN9),-0.0495,0.16,-0.235,0.0283
TRIO C1207 (UniProt O75962),–,0.535,0.214,-0.0915

Target,log2 mean competition ratio ([1]; 50 µM),log2 mean competition ratio ([1]; 200 µM),log2 mean competition ratio ([2]; 50 µM),log2 mean competition ratio ([2]; 200 µM)
TMEM201 C617 (UniProt Q5SNT2),-0.214,-0.088,-0.559,-0.051
TLCD3A C62 (UniProt Q8TBR7),-0.131,0.534,-0.337,0.233
TP53BP1 C986 (UniProt Q12888),-0.191,0.17,0.00173,0.207
TP53BP1 C712 (UniProt Q12888),-0.315,-0.407,-0.0998,-0.388
TMEM214 C655 (UniProt Q6NUQ4),0.0233,-0.139,0.107,0.0303
TP53BP1 C489 (UniProt Q12888),-0.0196,-0.0881,0.138,0.0144
TK1 C79,-0.0384,-0.197,-0.0903,0.117
TRIM4 C87 (UniProt Q9C037),-0.0386,-0.139,-0.13,-0.0237
TOE1 C371 (UniProt Q96GM8),-0.148,-0.446,-0.36,-0.172
TNIP2 C21 (UniProt Q8NFZ5),-0.0739,0.204,-0.255,0.171
TMEM131L C1241,0.254,0.424,-0.513,0.14
TMX4 C326 (UniProt Q9H1E5),-0.211,-0.141,-0.194,-0.189
TRIM41 C227 (UniProt Q8WV44),0.214,-0.0117,0.265,0.119
TRAPPC11 C815 (UniProt Q7Z392),0.0153,0.206,0.155,-0.371
TNFRSF1A C248 (UniProt P19438),-0.164,-0.301,0.0556,-0.279
TMEM219 C201 (UniProt Q86XT9),0.00401,0.0697,-1.04,-0.103
TPD52L1 C204 (UniProt Q16890),-0.258,–,-0.158,0.322
TLN1 C1392 (UniProt Q9Y490),0.0908,-0.433,0.211,-0.404
TMPO C330,-0.123,-0.141,0.343,0.146
TIMM50 C236 (UniProt Q3ZCQ8),0.00377,-0.0218,-0.0612,-0.0227
TOPBP1 C1099 (UniProt Q92547),0.0687,0.136,0.0309,0.0518
TPR C1127 (UniProt P12270),-0.118,-0.325,0.235,-0.0938

# Only log2 mean competition ratio ([1]; 200 µM) and log2 mean competition ratio ([1]; 50 µM) (3 entries from above):
Target,log2 mean competition ratio ([1]; 200 µM),log2 mean competition ratio ([1]; 50 µM)
TMEM131L C1241,0.424,0.254
TMX4 C326 (UniProt Q9H1E5),-0.141,-0.211
TRIM41 C227 (UniProt Q8WV44),-0.0117,0.214
